# Laboratory results from the supplement of paper PMC11732987, “Enantioselective OTUD7B fragment discovery through chemoproteomics screening and high-throughput optimisation” (Communications Chemistry, 2025).
# Protein sequences, listed by entry. Tags and fused reporters are not part of them. Lines headed by an entry give the natural chain unless they say otherwise; changes in a name come on top. Residues count along the entry.
# UniProt Q7RTV0, whole entry, looked up: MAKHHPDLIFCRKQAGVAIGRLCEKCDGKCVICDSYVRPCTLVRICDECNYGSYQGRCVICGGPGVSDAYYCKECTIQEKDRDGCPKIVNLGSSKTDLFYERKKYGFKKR
# UniProt O00459: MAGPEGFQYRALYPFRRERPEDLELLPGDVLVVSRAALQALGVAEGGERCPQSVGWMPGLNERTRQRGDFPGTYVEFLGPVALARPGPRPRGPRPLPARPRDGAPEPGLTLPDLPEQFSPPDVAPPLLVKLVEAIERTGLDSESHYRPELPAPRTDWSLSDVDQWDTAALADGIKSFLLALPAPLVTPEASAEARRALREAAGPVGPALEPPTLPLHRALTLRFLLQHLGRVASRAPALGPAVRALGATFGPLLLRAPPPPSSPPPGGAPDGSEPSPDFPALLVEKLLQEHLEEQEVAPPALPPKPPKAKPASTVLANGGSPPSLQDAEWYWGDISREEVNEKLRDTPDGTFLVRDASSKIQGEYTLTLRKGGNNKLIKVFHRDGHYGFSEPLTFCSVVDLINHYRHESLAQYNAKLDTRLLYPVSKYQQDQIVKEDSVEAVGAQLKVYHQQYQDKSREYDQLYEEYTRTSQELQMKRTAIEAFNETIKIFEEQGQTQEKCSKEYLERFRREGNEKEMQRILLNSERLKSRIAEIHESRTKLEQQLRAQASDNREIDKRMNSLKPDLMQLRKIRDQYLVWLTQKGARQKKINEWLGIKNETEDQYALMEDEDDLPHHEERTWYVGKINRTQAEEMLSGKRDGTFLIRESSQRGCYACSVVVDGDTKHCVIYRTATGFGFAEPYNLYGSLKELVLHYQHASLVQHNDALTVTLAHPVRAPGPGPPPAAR
# UniProt P15735: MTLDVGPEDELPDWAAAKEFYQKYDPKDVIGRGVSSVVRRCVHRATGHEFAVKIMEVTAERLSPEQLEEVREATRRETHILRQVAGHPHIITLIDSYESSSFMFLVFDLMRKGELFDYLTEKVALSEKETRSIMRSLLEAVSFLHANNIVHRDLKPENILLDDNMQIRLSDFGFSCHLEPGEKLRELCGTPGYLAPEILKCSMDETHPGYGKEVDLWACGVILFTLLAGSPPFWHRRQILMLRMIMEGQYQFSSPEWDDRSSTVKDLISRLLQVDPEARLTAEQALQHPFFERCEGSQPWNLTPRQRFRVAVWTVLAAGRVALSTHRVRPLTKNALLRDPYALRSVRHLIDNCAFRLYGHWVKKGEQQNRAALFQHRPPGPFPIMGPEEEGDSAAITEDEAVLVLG
# UniProt P09884, 1171-1191: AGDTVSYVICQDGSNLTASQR
# UniProt O75439: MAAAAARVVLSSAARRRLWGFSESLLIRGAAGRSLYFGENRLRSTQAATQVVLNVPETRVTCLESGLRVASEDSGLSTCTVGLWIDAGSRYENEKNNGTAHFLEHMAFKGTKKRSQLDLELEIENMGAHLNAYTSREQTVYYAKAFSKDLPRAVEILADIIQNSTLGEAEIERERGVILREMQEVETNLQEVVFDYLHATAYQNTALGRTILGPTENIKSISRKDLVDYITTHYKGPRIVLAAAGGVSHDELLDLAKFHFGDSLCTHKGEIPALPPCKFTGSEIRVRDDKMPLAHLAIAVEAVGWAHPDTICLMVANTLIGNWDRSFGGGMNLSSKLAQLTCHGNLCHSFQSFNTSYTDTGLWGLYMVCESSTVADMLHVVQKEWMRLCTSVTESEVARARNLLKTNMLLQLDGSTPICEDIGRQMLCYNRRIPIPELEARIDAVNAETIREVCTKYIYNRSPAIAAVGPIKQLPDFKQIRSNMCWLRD
# UniProt Q16513: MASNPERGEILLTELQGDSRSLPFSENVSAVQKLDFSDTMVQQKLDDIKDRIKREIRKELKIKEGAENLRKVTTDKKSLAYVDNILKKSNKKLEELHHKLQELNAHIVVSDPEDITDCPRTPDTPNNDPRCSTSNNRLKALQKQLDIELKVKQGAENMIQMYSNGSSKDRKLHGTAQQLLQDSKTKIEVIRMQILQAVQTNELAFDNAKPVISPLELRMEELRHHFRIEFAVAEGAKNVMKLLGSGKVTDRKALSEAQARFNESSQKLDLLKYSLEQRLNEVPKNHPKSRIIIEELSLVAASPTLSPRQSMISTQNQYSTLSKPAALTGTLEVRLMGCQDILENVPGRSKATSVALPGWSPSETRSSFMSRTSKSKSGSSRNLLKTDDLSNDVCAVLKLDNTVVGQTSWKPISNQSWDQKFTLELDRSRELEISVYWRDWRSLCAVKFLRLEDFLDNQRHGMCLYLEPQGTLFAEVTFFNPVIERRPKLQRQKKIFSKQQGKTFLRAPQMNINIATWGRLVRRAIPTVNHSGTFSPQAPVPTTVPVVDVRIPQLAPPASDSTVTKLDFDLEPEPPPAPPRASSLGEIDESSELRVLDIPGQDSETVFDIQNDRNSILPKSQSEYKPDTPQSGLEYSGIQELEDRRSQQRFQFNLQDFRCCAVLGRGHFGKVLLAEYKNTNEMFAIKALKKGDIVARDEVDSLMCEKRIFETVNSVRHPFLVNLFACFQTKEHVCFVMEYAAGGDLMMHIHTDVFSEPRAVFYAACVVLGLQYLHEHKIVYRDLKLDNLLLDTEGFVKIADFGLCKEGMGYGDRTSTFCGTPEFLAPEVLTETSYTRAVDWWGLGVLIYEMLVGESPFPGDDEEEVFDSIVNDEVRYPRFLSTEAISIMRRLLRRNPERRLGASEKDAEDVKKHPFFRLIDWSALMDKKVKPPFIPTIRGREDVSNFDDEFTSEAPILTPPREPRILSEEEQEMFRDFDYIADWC
# UniProt Q02809: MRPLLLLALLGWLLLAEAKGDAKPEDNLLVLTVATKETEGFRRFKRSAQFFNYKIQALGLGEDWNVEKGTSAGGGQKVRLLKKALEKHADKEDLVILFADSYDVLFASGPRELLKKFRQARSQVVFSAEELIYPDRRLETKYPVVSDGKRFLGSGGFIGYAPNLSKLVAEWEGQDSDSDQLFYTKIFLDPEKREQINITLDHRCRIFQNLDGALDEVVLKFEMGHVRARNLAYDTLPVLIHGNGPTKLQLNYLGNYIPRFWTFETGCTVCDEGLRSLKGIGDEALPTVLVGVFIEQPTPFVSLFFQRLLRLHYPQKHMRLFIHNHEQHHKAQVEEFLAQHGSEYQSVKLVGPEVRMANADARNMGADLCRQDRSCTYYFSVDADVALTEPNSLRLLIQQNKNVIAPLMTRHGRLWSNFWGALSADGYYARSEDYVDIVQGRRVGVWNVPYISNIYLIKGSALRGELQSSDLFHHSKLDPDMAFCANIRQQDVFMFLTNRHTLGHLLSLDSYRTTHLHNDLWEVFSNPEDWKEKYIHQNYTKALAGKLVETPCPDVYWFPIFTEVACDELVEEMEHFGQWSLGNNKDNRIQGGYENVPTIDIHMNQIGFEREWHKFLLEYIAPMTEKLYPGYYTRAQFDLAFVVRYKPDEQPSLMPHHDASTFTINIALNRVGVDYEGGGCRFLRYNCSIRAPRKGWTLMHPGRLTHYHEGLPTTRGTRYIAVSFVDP
# UniProt P54277: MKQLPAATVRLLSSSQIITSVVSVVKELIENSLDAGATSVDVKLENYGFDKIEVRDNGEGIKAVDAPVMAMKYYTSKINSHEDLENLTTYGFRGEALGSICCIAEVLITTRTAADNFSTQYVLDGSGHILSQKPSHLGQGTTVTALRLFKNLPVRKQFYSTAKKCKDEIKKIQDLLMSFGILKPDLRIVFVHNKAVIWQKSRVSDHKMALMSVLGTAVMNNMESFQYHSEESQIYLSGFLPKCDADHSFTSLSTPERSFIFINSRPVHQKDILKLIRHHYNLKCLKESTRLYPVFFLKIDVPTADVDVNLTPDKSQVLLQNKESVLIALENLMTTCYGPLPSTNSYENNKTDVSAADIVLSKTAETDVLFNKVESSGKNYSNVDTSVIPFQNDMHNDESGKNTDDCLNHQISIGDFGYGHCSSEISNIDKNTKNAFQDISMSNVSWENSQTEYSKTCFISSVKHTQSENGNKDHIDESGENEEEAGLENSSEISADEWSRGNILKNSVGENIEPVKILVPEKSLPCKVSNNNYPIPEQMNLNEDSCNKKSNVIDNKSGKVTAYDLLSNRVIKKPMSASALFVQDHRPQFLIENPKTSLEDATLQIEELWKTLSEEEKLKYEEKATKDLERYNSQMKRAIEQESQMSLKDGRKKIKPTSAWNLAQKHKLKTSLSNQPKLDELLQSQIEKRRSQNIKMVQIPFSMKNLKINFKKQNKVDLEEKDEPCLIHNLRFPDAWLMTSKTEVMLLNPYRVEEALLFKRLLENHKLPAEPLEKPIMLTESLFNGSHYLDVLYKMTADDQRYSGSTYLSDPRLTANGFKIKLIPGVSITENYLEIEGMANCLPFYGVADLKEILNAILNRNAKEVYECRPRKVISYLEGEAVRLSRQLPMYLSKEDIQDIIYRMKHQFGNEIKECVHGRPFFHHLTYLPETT
# UniProt Q93100: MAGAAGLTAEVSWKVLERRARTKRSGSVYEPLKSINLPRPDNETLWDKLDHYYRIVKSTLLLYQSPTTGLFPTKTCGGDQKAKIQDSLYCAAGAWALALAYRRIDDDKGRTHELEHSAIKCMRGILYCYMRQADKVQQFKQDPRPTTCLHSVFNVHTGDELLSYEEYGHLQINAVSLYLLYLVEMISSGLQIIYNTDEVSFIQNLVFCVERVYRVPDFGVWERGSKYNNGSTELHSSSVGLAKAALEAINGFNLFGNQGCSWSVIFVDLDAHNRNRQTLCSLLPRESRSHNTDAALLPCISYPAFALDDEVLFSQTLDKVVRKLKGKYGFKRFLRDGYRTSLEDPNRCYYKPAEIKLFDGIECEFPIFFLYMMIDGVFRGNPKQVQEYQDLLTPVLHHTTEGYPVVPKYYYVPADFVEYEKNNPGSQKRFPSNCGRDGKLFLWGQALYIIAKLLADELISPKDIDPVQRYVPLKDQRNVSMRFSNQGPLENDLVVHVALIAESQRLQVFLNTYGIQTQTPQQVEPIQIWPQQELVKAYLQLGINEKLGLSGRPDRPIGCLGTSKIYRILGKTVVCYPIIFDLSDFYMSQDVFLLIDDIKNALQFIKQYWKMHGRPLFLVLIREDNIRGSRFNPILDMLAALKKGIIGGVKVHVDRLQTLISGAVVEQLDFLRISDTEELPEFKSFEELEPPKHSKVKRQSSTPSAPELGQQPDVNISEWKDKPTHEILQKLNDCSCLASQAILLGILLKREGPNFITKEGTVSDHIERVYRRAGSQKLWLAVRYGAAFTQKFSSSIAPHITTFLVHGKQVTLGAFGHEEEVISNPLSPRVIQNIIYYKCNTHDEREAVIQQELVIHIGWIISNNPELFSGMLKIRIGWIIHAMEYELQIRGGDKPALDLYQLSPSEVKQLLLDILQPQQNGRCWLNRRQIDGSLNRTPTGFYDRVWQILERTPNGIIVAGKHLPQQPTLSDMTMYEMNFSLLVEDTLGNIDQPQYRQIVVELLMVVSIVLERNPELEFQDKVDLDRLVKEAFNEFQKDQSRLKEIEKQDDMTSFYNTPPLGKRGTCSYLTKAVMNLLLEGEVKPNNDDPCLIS
# UniProt O75928, 444-464: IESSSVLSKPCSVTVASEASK
# UniProt O14832: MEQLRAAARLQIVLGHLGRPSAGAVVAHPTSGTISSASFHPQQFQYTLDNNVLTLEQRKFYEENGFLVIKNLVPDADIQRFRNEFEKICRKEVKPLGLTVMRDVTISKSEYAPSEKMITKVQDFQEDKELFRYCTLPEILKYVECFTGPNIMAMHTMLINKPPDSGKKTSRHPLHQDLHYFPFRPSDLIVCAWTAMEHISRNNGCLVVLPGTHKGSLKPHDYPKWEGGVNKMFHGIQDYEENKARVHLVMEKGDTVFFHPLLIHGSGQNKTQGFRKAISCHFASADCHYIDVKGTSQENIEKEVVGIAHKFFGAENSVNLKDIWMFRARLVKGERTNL
# UniProt Q8IYS1: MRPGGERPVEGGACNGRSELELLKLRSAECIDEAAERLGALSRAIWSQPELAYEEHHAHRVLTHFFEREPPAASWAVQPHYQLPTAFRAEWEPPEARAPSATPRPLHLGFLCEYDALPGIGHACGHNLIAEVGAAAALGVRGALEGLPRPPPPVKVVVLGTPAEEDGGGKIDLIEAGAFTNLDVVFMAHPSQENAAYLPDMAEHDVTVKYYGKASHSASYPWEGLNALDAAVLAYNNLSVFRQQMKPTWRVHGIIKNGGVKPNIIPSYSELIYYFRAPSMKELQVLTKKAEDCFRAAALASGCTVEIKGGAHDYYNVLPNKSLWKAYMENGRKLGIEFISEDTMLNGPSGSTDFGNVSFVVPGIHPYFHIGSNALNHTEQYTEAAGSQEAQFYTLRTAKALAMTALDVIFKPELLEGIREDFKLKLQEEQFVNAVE
# UniProt Q14442: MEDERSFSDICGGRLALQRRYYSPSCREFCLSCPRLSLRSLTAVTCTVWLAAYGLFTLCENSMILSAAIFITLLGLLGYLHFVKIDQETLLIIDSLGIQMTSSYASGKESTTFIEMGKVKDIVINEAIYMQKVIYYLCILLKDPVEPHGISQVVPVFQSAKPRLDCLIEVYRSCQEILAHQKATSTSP
# The list shows a part of the results. The data scatter; read single values as rough.
# Compound: ClCC(=O)N[C@@H]1CCCc2ccccc12
# Assay: log2 mean competition ratio of IA-DTB cysteine labelling (DMSO/compound) (log2 ratio); higher = stronger cysteine engagement by compound
# Settings: 50 µM; treatment time: 4 h; cell line lysate: HEK293T
# Description: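 IA-DTB competitive cysteine chemoproteomics in HEK293T RIPA lysate. Lysates were treated with compound 29 or 30 at 50 or 200 µM for 4 h, then IA-DTB (500 µM, 1 h), trypsin-digested, NeutrAvidin-enriched and analysed by diaPASEF. Competition ratio = intensity DMSO / intensity compound (n=4 treated, n=64 DMSO); binding: mean log2 CR ≥ 1 and p ≤ 0.05 plus QC filters. Target is the cysteine site.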
row,Target,log2 mean competition ratio
1,PHF5A C75 (UniProt Q7RTV0),0.174
2,POGZ C1267 (UniProt Q7Z3K3),0.00818
3,PML C204 (UniProt P29590),0.375
4,POLR1A C1304 (UniProt O95602),-0.0622
5,PIK3R2 C50 (UniProt O00459),0.0778
6,PHKG2 C188 (UniProt P15735),-0.0149
7,POLR1F C47,-0.515
8,POLA1 C1180 (UniProt P09884),-0.411
9,PMPCB C419 (UniProt O75439),-0.458
10,POLR2A C1159,-0.0394
11,PIKFYVE C1970 (UniProt Q9Y2I7),-0.434
12,PKN2 C338 (UniProt Q16513),0.229
13,PKM C358,-0.372
14,PLOD1 C680 (UniProt Q02809),-0.11
15,POLE C747 (UniProt Q07864),-0.0778
16,PMS1 C243 (UniProt P54277),-0.172
17,PLEKHH2 C257 (UniProt E5RGK1),0.18
18,PLAA C631 (UniProt Q9Y263),0.00481
19,PHKB C76 (UniProt Q93100),-0.431
20,PIAS2 C454 (UniProt O75928),-0.118
21,PLAT C419,-0.127
22,POLM C222,-0.171
23,PITRM1 C780 (UniProt Q5JRX3),-0.0415
24,PKM C49,-0.117
25,PHYH C205 (UniProt O14832),-0.0534
26,PIAS2 C425 (UniProt O75928),-0.167
27,PI4KB C435 (UniProt Q9UBF8),-0.0921
28,PM20D2 C30 (UniProt Q8IYS1),-0.113
29,PIGH C11 (UniProt Q14442),-0.035

# Part of the list above, bar-delimited:
row | Target | log2 mean competition ratio
7 | POLR1F C47 | -0.515
22 | POLM C222 | -0.171
